Data as given in PubChem BioAssay AID652259 (Drosophila RNAi Screening Center, 2013)
In all, the deposit lists about 22,000 reagents; shown is an unselected part of those that have a named target and a result. In the full data, 233 (1.1%) were called active. 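Light values are raw, unnormalised plate reads; the ratio scores behind the reporter calls were not deposited.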 Not stated in the record: the amount of reagent, the time to read-out, the dose of the treatment.

Assay: 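Genome-wide hunt for genes that control Wingless pathway activity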 (primary screen)
Cell system: Drosophila clone 8 imaginal disc epithelial cells
Knock-down reagent: long dsRNA against Drosophila genes
Treatment: pathway stimulated by co-transfected Wingless expression plasmid
Detection: 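Dual luciferase reads per well after Wingless plasmid stimulation: reporter firefly light and Renilla control light; activity is firefly divided by Renilla, a ratio not deposited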
Reading the numbers: firefly reporter light: higher = more Wg reporter light, before normalisation; Renilla control light: higher = more transfected or surviving cells
Hit rule: 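Strong candidates differ from their plate mean by at least two out of four per-plate statistical tests; weak candidates meet just one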
Calls: active = candidate regulator (raises or lowers reporter); inactive = not a candidate

| gene | DRSC id | reporter change call, replicate 1 | firefly reporter light, replicate 1 | firefly reporter light, replicate 2 | Renilla control light, replicate 1 | Renilla control light, replicate 2 | activity call |
| --- | --- | --- | --- | --- | --- | --- | --- |
| ush | DRSC00843 | – | 8971 | – | 5164 | – | inactive |
| CG13871 | DRSC06430 | – | 8105 | – | 2656 | – | inactive |
| Ack-like | DRSC07500 | – | 13430 | – | 3028 | – | inactive |
| Ack-like | DRSC21845 | – | 5.54e5 | 5.51e5 | 2.10e5 | 2.67e5 | inactive |
| CG11741 | DRSC14367 | – | 13265 | – | 4096 | – | inactive |
| CG31446 | DRSC13111 | – | 2632 | – | 1176 | – | inactive |
| CG17249 | DRSC08517 | – | 14309 | – | 3735 | – | inactive |
| CG17600 | DRSC20638 | – | 22592 | – | 14740 | – | inactive |
| CG17600 | DRSC20640 | – | 14301 | – | 7202 | – | inactive |
| CG17600 | DRSC22753 | – | 6.35e5 | 5.92e5 | 1.89e5 | 1.46e5 | inactive |
| CG4991 | DRSC19928 | – | 2460 | 5424 | 896 | 2497 | inactive |
| Or88a | DRSC16770 | – | 12304 | – | 3619 | – | inactive |
| Sec24CD | DRSC00300 | – | 10632 | – | 2859 | – | inactive |
| CG33111 | DRSC14208 | – | 16404 | – | 13010 | – | inactive |
| CG33111 | DRSC14444 | – | 21141 | – | 16332 | – | inactive |
| E(spl)malpha-BFM | DRSC16994 | – | 22849 | – | 12892 | – | inactive |
| CG32409 | DRSC08780 | – | 4774 | – | 2685 | – | inactive |
| CG33342 | DRSC13662 | – | 2512 | – | 1307 | – | inactive |
| Apc | DRSC14114 | – | 7830 | – | 3399 | – | inactive |
| Hml | DRSC11183 | – | 5216 | – | 2528 | – | inactive |
| CG34301 | DRSC12704 | – | 2807 | – | 1243 | – | inactive |
| crq | DRSC00810 | – | 3676 | 7321 | 1297 | 2848 | inactive |
| CG10333 | DRSC02036 | – | 14749 | – | 4233 | – | inactive |
| Tsp42Ej | DRSC06113 | – | 6964 | – | 2971 | – | inactive |
| gish | DRSC16154 | – | 2727 | 6348 | 1414 | 2131 | inactive |
| CG11426 | DRSC11658 | – | 16242 | – | 5997 | – | inactive |
| CG17977 | DRSC06700 | – | 2672 | 9217 | 929 | 3632 | inactive |
| ND-19 | DRSC04404 | – | 3515 | 9912 | 1240 | 2696 | inactive |
| veli | DRSC16276 | – | 22508 | – | 20450 | – | inactive |
| Snr1 | DRSC12369 | – | 9980 | – | 2484 | – | inactive |
| fs(1)h | DRSC18778 | – | 3724 | 10635 | 1292 | 2032 | inactive |
| Ugt36A1 | DRSC00748 | – | 4184 | 8157 | 1840 | 1197 | inactive |
| CG11585 | DRSC19410 | – | 16442 | – | 8829 | – | inactive |
| CLS | DRSC15642 | – | 23531 | – | 17496 | – | inactive |
| Sema1a | DRSC03433 | – | 2549 | 7354 | 737 | 2315 | inactive |
| CG32022 | DRSC09678 | – | 1376 | 5781 | 1306 | 2822 | inactive |
| Grx1t | DRSC04530 | – | 2826 | 5714 | 624 | 2282 | inactive |
| CG9004 | DRSC08617 | – | 6324 | – | 3111 | – | inactive |
| CG3847 | DRSC17444 | – | 2813 | – | 1001 | – | inactive |
| CG3847 | DRSC18327 | – | 1624 | 4448 | 608 | 1719 | inactive |
| GatB | DRSC15807 | – | 16138 | – | 13750 | – | inactive |
| dany | DRSC04141 | – | 3154 | 9234 | 739 | 2439 | inactive |
| Prosbeta5R1 | DRSC04581 | – | 1952 | 7506 | 528 | 3408 | inactive |
| Ace | DRSC12959 | – | 3851 | – | 1434 | – | inactive |
| Ace | DRSC14100 | – | 5669 | – | 2300 | – | inactive |
| CG30430 | DRSC22260 | – | 5.62e5 | 5.22e5 | 2.15e5 | 2.13e5 | inactive |
| CG42402 | DRSC21116 | – | 13581 | – | 10038 | – | inactive |
| CG15147 | DRSC02447 | – | 3140 | 8534 | 1174 | 4427 | inactive |
| CG15147 | DRSC02448 | – | 2509 | 8364 | 1190 | 4161 | inactive |
| CG1529 | DRSC20515 | – | 18880 | – | 8545 | – | inactive |
| Sec5 | DRSC00714 | – | 7241 | – | 4136 | – | inactive |
| e | DRSC16936 | – | 2364 | 5385 | 963 | 2050 | inactive |
| CG14377 | DRSC14837 | – | 14209 | – | 3593 | – | inactive |
| CG12325 | DRSC06130 | – | 12313 | – | 3216 | – | inactive |
| aop | DRSC00801 | Wg reporter activity raised | 2768 | 6800 | 468 | 1155 | active |
| Git | DRSC06620 | – | 7842 | – | 2307 | – | inactive |
| CG12384 | DRSC06145 | – | 19395 | 7.03e5 | 6022 | 3.02e5 | inactive |
| Grip128 | DRSC20167 | – | 2864 | 7320 | 1012 | 2544 | inactive |
| CG34328 | DRSC19256 | – | 4481 | – | 1480 | – | inactive |
| CG31676 | DRSC02387 | – | 3108 | 8504 | 1060 | 3388 | inactive |
| CG5323 | DRSC06929 | – | 9784 | – | 3264 | – | inactive |
| CG31371 | DRSC15079 | – | 6997 | – | 2577 | – | inactive |
| elfless | DRSC02451 | – | 2069 | 4268 | 860 | 3421 | inactive |
| CG6144 | DRSC02934 | – | 2801 | – | 340 | – | inactive |
| CG33080 | DRSC18080 | – | 23618 | – | 10733 | – | inactive |
| CG33080 | DRSC18081 | – | 32608 | – | 12064 | – | inactive |
| CG33080 | DRSC18285 | – | 19408 | – | 9952 | – | inactive |
| cer | DRSC05992 | – | 5204 | – | 2839 | – | inactive |
| CG42541 | DRSC17973 | – | 20352 | – | 7218 | – | inactive |
| CG42541 | DRSC18119 | – | 8909 | – | 1764 | – | inactive |
| CG42541 | DRSC18120 | – | 16048 | – | 8044 | – | inactive |
| CG4872 | DRSC19921 | – | 2137 | 8179 | 664 | 2120 | inactive |
| CG4884 | DRSC15671 | – | 2336 | – | 1912 | – | inactive |
